Experimental data as given in patent US20220259330A1.
Results are given in words; binding and its absence hold for the method and conditions named. Some results given as binding are weak or reduced against the parent protein; the word gives no strength.

By UniProt entry, the sequences of proteins in these tests, tags left out. Where a name states a change or a piece, a line headed by the entry shows the natural chain unless it says otherwise. Residues count along the entry.
UniProt P01137, residues 279-390: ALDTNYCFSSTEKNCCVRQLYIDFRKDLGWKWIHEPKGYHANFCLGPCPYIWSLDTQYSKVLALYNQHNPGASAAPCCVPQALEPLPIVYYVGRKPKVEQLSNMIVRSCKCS
UniProt Q15116, residues 25-170: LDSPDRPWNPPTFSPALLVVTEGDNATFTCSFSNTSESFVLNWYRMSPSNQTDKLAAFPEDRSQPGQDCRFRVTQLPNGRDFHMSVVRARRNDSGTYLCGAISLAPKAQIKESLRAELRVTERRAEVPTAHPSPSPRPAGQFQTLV

Key:
[1] = molecular target: TGF-β1 (Sino Biological, Cat. No. 10804-HNAC) (UniProt P01137); experiment: ELISA, TGF-β1 coated at 5 ng/well
[2] = molecular target: biotinylated human PD-1 extracellular recombinant protein (Sino Biological, Cat. No. 10377-H08H-B) (human) (UniProt Q15116); experiment: condition: about 100 nM (last point at log(nM) about 2); bridging ELISA: LAG3-ECD-His coated, antibody titrated, biotinylated human PD-1 and streptavidin-HRP for detection

binding [1]	binding [2]	Binder
binds		mAb127 (antibody, human IgG4 S228P, kappa, V domains shown) VH: QVQLVQSGAEVKKPGASVKVSCKASGYTFTSEWMNWVRQAPGQGLEWMGQIFPALGSTNYNEMYEGRVTMTTDTSTSTAYMELRSLRSDDTAVYYCARGIGNYALDAMDYWGQGTLVTVSS VL: DIQMTQSPSSLSASVGDRVTITCRASESVDFYGNSFMHWYQQKPGKAPKLLIYLASNLESGVPSRFSGSGSGTDFTLTISSLQPEDFATYYCQQNIEDPLTFGGGTKVEIKR
binds		mAb127-HC+14-Hu-LC (antibody, human IgG4 S228P, kappa, V domains shown) VH: QVQLVQSGAEVKKPGASVKVSCKASGYTFTSEWMNWVRQAPGQGLEWMGQIFPALGSTNYNEMYEGRVTMTTDTSTSTAYMELRSLRSDDTAVYYCARGIGNYALDAMDYWGQGTLVTVSS VL: DIVLTQSPASLAVSPGQRATITCRASESVDNYGNSFMNWYQQKPGQPPKPLIYFASNLESGVPARFSGSGSRTDFTLTINPVEADDTANYYCQQNNEAPPTFGQGTKVEIKR
	no binding	5E7-Hu (antibody, human IgG4 S228P, kappa, V domains shown) VH: EVQLVESGGGLVKPGGSLRLSCAASGFTFSDDYMAWFRQAPGKRLEWVASISHGGDYIYYADNLKGRFTISRDNAKNSLYLQMNSLRAEDTAVYFCSRDRRSIDYWGQGTLVTVSS VL: DIQMTQSPSSLSASVGDRVTITCRASQDISNYLSWYQQKPGKTIKLLIYYTSRLHSGVPSRFSGSGSGTDYTFTISSLQPEDIATYFCQQGKTLPYTFGQGTKVEIKR
